Results published in patent publication US7863414B2, “Methods of treatment and uses for CaMKII and its interaction with HDACs and calpain” (The Board of Regents of the University of Texas Systems, priority 2005, dated 2011).

System: HDAC4
Assay: Nuclear export of Flag-HDAC4 in cardiomyocytes (NRVMs), immunofluorescence
Assay type: cell-based, rat
Settings: adenoviral Flag-HDAC4, inhibitor pretreatment 30 min, PE 4 hrs, Stauro 500 nmol/l, KN93 5 μmol/l, KN62 10 μmol/l, AIPII-2 500 nmol/l, Bis 2.5 μmol/l, Gö6976 200 nmol/l, H89 1 μmol/l
Excerpt: Cardiomyocyte culture and adenoviral infection. NRVMs were isolated from 1-2 day Sprague Dawley rats. For adenovirus production, cDNAs encoding FLAG-tagged HDAC4 wild-type or a mutant containing alanines in place of serines 246, 467 and 632 (S/A) were subcloned into the pACCMV vector and co-transfected with pJM17 into 293 cells. Primary lysates were used to re-infect 293 cells and viral plaques were obtained using the agar overlay method. The production of adenoviral GFP-HDAC5 was described previously 18. NRVMs were infected 24 h after plating, starved for 4 h, and stimulated with PE or Iso for the indicated time period. In experiments with kinase inhibitors, NRVMs were pretreated with the inhibitor 30 min prior stimulation. For assessing cardiomyocyte hypertrophy, NRVMs were starved for 24 h and stimulated with PE for another 24 hrs. Subcellular localization of Flag-HDAC4 and cardiomyocyte hypertrophy, as assessed by sarcomeric organization, was determined by indirect immunofluorescence.
Indirect Immunofluorescence. COS cells were grown on glass coverslips, fixed in paraformaldehyde (4%), permeabilized in 0.1% Triton-X-100 and blocked in PBS containing goat serum (5%). Primary antibodies against FLAG (monoclonal or rabbit; Sigma), Myc (polyclonal, A-14; Santa Cruz), or HA (polyclonal, Y-11; Santa Cruz) were used at a dilution of 1:200. […]

For `CN[C@@H]1C[C@H]2O[C@@](C)([C@@H]1OC)n1c3ccccc3c3c4c(c5c6ccccc6n2c5c31)C(=O)NC4` [staurosporine], the “Effect of kinase inhibitor on PE-induced nuclear export of HDAC4” value was “markedly reduced” and the “Effect of kinase inhibitor on PE-induced nuclear export of HDAC4” value (listed as Stauro) was “effective in blocking”.
